Assay results published in the supplement of paper PMC10849652.
The list shows a part of the results.

The chains behind the UniProt entries cited, without tags or fusion partners. Where a name states a change or a piece, a line headed by the entry shows the natural chain unless it says otherwise.
UniProt Q16656: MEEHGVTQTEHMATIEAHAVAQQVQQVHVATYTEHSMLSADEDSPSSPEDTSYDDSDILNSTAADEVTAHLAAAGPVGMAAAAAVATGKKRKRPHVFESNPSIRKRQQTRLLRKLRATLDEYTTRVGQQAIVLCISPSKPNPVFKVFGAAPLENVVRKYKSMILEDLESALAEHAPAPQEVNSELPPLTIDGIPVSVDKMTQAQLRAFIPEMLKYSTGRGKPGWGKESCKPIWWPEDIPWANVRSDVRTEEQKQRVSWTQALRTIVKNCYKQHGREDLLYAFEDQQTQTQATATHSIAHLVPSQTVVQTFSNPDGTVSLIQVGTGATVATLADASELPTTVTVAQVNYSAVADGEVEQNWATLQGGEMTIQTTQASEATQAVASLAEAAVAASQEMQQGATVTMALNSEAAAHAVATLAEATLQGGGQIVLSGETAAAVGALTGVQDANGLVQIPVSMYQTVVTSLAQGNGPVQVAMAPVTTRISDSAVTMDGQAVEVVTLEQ
UniProt Q96D46: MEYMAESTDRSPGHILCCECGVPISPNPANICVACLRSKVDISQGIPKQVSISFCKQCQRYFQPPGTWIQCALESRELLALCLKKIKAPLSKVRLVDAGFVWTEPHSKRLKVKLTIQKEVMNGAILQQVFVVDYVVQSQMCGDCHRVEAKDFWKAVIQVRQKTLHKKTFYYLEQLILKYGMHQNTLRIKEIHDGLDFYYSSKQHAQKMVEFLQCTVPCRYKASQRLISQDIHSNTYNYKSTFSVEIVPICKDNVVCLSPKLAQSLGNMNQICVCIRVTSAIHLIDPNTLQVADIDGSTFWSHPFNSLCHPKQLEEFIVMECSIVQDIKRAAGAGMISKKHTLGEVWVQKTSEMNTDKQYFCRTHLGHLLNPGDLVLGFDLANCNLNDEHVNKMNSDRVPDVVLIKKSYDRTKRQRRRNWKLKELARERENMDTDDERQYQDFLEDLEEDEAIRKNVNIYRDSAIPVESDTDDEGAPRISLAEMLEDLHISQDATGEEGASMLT
UniProt Q9Y3C1: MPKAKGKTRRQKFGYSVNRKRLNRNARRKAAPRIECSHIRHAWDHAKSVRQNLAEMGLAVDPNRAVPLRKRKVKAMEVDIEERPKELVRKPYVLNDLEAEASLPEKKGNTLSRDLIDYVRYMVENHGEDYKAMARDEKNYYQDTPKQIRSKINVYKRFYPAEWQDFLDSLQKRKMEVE
UniProt Q13232: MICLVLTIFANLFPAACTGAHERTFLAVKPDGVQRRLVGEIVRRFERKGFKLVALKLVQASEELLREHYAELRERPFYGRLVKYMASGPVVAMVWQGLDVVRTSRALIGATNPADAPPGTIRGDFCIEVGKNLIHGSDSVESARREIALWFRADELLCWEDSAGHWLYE
UniProt O14524: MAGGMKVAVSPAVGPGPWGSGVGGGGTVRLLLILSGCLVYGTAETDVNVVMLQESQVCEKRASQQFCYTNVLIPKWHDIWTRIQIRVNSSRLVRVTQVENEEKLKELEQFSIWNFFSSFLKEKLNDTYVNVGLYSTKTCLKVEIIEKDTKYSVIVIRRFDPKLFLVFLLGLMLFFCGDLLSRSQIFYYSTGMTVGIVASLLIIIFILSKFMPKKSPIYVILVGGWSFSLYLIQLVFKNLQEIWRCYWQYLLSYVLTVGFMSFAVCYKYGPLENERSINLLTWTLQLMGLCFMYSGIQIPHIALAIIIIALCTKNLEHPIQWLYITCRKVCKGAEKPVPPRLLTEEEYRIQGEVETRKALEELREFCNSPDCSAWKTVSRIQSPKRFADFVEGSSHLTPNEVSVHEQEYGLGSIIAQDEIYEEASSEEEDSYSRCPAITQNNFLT
UniProt P69849: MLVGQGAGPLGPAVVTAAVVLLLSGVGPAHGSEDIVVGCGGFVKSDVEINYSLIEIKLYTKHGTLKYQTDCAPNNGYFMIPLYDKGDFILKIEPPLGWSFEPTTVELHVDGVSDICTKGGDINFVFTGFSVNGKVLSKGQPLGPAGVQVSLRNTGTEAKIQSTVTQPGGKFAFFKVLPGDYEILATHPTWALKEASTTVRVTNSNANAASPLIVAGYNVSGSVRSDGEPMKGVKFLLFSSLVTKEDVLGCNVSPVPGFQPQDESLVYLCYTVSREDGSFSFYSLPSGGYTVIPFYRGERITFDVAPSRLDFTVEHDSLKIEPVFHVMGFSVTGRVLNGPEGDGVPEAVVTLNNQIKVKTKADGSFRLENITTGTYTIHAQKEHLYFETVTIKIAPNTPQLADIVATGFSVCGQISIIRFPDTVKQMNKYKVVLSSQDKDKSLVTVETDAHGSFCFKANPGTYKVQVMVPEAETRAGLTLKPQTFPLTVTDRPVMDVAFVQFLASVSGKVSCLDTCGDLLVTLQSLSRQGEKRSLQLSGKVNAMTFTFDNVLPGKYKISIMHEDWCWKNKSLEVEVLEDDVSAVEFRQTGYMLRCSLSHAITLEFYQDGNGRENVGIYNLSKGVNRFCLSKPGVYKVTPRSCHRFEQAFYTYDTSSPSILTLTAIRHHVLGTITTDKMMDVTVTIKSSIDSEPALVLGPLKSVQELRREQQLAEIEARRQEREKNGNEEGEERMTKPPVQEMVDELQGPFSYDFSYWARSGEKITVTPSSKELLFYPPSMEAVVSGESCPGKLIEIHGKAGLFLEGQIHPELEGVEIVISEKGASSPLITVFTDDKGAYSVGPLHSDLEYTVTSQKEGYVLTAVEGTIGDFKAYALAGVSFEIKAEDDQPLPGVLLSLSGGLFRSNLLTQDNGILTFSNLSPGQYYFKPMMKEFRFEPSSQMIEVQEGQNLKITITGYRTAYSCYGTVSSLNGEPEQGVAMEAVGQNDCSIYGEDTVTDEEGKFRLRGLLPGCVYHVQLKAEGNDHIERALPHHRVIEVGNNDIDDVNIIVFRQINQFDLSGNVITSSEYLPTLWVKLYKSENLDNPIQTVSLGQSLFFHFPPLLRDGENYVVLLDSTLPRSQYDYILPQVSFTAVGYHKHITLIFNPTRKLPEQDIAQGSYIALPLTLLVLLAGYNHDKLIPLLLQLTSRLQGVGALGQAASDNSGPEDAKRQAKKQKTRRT
UniProt Q8N8Q9: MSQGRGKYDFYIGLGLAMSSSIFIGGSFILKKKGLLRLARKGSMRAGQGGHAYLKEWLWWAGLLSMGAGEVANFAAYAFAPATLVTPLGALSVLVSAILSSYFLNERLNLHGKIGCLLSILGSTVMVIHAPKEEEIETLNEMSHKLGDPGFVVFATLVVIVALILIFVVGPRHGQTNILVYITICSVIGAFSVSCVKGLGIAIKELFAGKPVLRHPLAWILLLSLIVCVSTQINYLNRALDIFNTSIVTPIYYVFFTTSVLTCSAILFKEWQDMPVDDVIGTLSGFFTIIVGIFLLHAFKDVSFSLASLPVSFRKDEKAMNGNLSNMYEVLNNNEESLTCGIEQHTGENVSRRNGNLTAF
UniProt Q9Y2I1: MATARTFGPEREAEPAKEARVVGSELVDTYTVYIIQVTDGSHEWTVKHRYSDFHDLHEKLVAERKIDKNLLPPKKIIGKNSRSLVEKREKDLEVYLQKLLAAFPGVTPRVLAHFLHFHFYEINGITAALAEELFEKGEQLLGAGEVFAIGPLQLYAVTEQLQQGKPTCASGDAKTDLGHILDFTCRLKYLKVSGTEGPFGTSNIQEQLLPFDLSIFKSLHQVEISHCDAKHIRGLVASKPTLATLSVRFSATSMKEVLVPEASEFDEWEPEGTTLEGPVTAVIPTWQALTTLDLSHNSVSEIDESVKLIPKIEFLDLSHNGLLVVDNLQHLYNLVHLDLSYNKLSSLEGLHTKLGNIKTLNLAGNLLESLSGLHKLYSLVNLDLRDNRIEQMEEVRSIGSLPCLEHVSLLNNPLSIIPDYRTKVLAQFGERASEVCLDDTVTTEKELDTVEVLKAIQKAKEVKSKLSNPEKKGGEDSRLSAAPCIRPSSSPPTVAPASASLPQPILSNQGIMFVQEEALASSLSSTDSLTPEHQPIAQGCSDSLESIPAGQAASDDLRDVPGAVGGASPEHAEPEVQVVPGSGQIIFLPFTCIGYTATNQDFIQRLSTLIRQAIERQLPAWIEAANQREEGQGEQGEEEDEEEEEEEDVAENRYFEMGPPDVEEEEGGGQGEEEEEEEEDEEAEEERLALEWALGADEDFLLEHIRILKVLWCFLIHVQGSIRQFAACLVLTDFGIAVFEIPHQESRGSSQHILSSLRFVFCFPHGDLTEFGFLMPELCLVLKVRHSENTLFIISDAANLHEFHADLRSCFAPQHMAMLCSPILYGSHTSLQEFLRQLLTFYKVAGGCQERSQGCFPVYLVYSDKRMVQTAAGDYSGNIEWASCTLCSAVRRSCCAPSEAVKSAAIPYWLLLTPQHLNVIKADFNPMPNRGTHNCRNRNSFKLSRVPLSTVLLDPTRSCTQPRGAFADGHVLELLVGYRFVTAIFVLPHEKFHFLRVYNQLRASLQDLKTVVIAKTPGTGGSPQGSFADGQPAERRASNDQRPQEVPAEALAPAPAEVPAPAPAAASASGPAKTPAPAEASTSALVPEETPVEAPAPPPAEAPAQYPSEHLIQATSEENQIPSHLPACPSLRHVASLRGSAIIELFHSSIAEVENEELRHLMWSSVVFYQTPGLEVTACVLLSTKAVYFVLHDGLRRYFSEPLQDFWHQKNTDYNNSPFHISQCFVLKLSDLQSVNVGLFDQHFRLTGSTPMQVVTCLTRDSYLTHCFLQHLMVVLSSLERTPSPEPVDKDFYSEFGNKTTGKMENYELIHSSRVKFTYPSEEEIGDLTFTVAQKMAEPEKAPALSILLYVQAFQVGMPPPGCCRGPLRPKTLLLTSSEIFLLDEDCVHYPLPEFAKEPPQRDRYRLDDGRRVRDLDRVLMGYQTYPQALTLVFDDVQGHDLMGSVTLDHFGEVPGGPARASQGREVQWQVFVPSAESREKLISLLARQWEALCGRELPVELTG
UniProt Q86X76: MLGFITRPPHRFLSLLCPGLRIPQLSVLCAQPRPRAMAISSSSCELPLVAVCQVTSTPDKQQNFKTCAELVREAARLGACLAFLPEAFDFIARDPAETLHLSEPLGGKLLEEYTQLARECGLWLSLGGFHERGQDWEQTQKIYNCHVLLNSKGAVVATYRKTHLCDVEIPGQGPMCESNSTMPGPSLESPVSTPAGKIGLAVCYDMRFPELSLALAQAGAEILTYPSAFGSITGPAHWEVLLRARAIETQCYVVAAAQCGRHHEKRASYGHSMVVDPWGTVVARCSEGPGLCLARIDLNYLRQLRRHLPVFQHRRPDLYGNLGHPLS
UniProt P48645: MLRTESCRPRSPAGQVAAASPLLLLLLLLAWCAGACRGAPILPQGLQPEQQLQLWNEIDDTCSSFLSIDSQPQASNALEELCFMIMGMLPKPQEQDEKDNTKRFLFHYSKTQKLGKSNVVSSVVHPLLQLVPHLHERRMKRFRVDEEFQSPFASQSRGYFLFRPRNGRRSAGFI
UniProt Q9Y221: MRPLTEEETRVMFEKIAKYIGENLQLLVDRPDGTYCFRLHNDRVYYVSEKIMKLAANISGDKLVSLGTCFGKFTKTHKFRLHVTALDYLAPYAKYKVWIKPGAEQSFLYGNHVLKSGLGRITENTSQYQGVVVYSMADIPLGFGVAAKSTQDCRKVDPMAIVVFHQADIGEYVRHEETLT
UniProt Q9Y314: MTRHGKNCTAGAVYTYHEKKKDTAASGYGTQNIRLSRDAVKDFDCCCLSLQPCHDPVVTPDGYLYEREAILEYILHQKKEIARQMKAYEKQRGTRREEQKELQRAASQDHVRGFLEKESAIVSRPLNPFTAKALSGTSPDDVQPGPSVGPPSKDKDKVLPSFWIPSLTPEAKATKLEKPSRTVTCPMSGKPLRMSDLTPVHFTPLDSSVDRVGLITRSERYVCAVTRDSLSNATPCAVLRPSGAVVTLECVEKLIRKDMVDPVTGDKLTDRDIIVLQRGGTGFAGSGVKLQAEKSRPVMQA
UniProt Q9BYG3: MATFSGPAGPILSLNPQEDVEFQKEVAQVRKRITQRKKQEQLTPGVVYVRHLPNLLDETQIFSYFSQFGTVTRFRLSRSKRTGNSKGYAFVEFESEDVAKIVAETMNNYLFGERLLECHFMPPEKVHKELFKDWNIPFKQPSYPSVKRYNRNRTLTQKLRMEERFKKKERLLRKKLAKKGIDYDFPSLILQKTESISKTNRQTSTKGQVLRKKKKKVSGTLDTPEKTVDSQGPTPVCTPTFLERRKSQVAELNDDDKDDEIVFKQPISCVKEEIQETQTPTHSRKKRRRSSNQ
UniProt O75414: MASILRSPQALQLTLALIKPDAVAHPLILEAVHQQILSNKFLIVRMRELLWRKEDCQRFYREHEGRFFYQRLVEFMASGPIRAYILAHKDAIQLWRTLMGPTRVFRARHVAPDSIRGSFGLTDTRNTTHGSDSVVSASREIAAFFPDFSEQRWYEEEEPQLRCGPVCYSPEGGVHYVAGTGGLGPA

Key:
Test in all cases: log2 fold change, soluble protein after heating vs DMSO (PISA); higher = thermal stabilisation; K562 cells, 10 uM, 30 min; active = over 0.2 and 3.5 SD of the protein, either way, in both replicates (recomputed)
bafetinib = compound: Cc1ccc(NC(=O)c2ccc(CN3CC[C@H](N(C)C)C3)c(C(F)(F)F)c2)cc1Nc1nccc(-c2cncnc2)n1 [bafetinib]
Method in brief: (§1)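 Quantification of soluble protein used TMTpro 16plex LC-MS/MS, with channel sums equalised. Samples were the supernatant after 21,000xg for 90 min of pooled aliquots from K562 cells (2×10^6 cells/mL) treated with 10 μM compound for 30 min, heated for 3 min over 48°C-58°C, and extracted in PBS with 0.5% NP-40 at 4°C. Values, from duplicates, describe thermal stability against control samples on a log2 fold-change scale.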

[1] = compound: Cc1cccc(CC(=O)N2CCc3c2ccc(-c2cn(C)c4ncnc(N)c24)c3F)n1
Method in brief: as §1

nilotinib = compound: Cc1cn(-c2cc(NC(=O)c3ccc(C)c(Nc4nccc(-c5cccnc5)n4)c3)cc(C(F)(F)F)c2)cn1 [nilotinib]
Method in brief: as §1

[2] = compound: Cc1nc(Nc2n[nH]c3c2CN(C(=O)N[C@H](CN(C)C)c2ccccc2)C3(C)C)c2sccc2n1
Method in brief: as §1

dasatinib = compound: Cc1nc(Nc2ncc(C(=O)Nc3c(C)cccc3Cl)s2)cc(N2CCN(CCO)CC2)n1 [dasatinib]
Method in brief: as §1

[3] = compound: Cc1ncc(-c2ccnc(Nc3ccc(S(C)(=O)=O)cc3)n2)n1C(C)C
Method in brief: as §1

[4] = compound: Cn1cc(-c2ccc3c(c2)CCN3C(=O)Cc2cccc(C(F)(F)F)c2)c2c(N)ncnc21
Method in brief: as §1

[5] = compound: Cn1cc(-c2ccc3nnc(C(F)(F)c4ccc5ncccc5c4)n3n2)cn1
Method in brief: as §1

tipifarnib = compound: Cn1cncc1[C@@](N)(c1ccc(Cl)cc1)c1ccc2c(c1)c(-c1cccc(Cl)c1)cc(=O)n2C [tipifarnib]
Method in brief: as §1

mubritinib = compound: FC(F)(F)c1ccc(/C=C/c2nc(COc3ccc(CCCCn4ccnn4)cc3)co2)cc1 [mubritinib]
Method in brief: as §1

Measured: log2 fold change

NRF1 isoform 4 (UniProt Q16656)
inactive: bafetinib -0.057 | [1] 0.023 | nilotinib -0.099 | [2] -0.152 | dasatinib -0.123 | [3] -0.042 | [4] 0.054 | [5] -0.096 | tipifarnib 0.022 | mubritinib 0.035

NMD3 (UniProt Q96D46)
inactive: bafetinib 0.071 | [1] 0.03 | nilotinib 0.025 | dasatinib 0.014 | [3] 0.123 | [4] 0.083 | [5] 0.028 | tipifarnib -0.107 | mubritinib 0.083
active: [2] 0.316

NOP16 (UniProt Q9Y3C1)
inactive: bafetinib 0.102 | [1] -0.147 | nilotinib 0.026 | [2] 0.14 | dasatinib 0.218 | [3] 0.006 | [4] -0.357 | [5] -0.156 | tipifarnib 0.181 | mubritinib -0.161

NME3 (UniProt Q13232)
inactive: bafetinib -0.036 | [1] -0.014 | nilotinib -0.006 | [2] 0.023 | dasatinib 0.056 | [3] -0.029 | [4] -0.005 | [5] 0.089 | tipifarnib 0.059 | mubritinib 0.017

NEMP1 (UniProt O14524)
inactive: bafetinib -0.147 | [1] 0.065 | nilotinib -0.186 | [2] 0.004 | dasatinib -0.009 | [3] 0.003 | [4] -0.007 | [5] -0.025 | tipifarnib 0 | mubritinib 0.036

NSFL1C isoform 5 (UniProt Q9UNZ2)
inactive: bafetinib -0.005 | [1] 0.014 | nilotinib -0.002 | [2] -0.031 | dasatinib -0.024 | [3] -0.001 | [4] 0.006 | [5] -0.016 | tipifarnib -0.038 | mubritinib 0.047

NOMO3 (UniProt P69849)
inactive: bafetinib -0.111

NSA2 (UniProt O95478)
inactive: bafetinib 0.209 | [1] 0

NIPA2 (UniProt Q8N8Q9)
inactive: bafetinib -0.073 | [1] 0.067 | nilotinib 0.152 | [2] -0.049 | dasatinib -0.211 | [3] 0.009 | [4] 0.019 | [5] 0.017 | tipifarnib -0.042 | mubritinib -0.086

NISCH (UniProt Q9Y2I1)
inactive: bafetinib -0.053 | [1] 0.053 | nilotinib -0.138 | [2] -0.158 | dasatinib -0.233 | [3] -0.324 | [4] -0.002 | [5] -0.02 | tipifarnib -0.03 | mubritinib -0.009

NIT1 (UniProt Q86X76)
inactive: bafetinib -0.01 | [1] -0.016 | nilotinib 0.023 | [2] -0.009 | dasatinib -0.018 | [3] -0.002 | [4] 0.037 | [5] -0.006 | tipifarnib -0.019 | mubritinib -0.043

NMU (UniProt P48645)
inactive: bafetinib -0.01 | [1] 0.152 | nilotinib 0.011 | [2] -0.022 | dasatinib 0.16 | [3] -0.012 | [4] -0.394 | [5] -0.11 | tipifarnib 0.276

NIP7 (UniProt Q9Y221)
inactive: bafetinib 0.381 | [1] -0.286 | nilotinib -0.109 | [2] 0.001 | dasatinib 0.17 | [3] 0.136 | [4] -0.179 | [5] -0.145 | tipifarnib 0.088 | mubritinib -0.284

NOSIP (UniProt Q9Y314)
inactive: bafetinib 0.085 | [1] 0.066 | nilotinib -0.11 | [2] -0.277 | dasatinib -0.229 | [3] 0.247 | [4] -0.063 | [5] -0.111 | tipifarnib -0.128 | mubritinib -0.098

NOTCH2 (UniProt Q04721)
inactive: bafetinib 0.18

NIFK (UniProt Q9BYG3)
inactive: bafetinib 0.103 | [1] -0.091 | nilotinib -0.222 | [2] 0.189 | dasatinib -0.05 | [3] 0.238 | [4] -0.087 | [5] -0.084 | tipifarnib 0.084 | mubritinib -0.283

Random excerpt: two entries already listed, in no set order.
NIP7 (UniProt Q9Y221)
inactive: bafetinib 0.381 | [1] -0.286 | nilotinib -0.109 | [2] 0.001 | dasatinib 0.17 | [3] 0.136 | [4] -0.179 | [5] -0.145 | tipifarnib 0.088 | mubritinib -0.284

NMU (UniProt P48645)
inactive: bafetinib -0.01 | [1] 0.152 | nilotinib 0.011 | [2] -0.022 | dasatinib 0.16 | [3] -0.012 | [4] -0.394 | [5] -0.11 | tipifarnib 0.276

(list continues)

NME6 (UniProt O75414)
inactive: bafetinib -0.099 | [1] -0.031 | nilotinib 0.028 | [2] 0.001 | dasatinib 0.014 | [3] -0.038 | [4] -0.023 | [5] 0.005 | tipifarnib 0.013 | mubritinib 0.01
